These results are taken from patent publication US9499601B2, “Molecular probe for sphingolipids” (Agency for Science, Technology and Research, priority 2006, dated 2016).

For the data set, the system named is plasma membrane of SH-SY5Y neuroblastoma cells. Kind of data set: Fluorescence Correlation Spectroscopy (FCS) diffusion time at the plasma membrane. Type of data set: cell-based, human. The following applies: for diffusion time τD on average: untreated cells.

Take “Cysteine-[AEEAc]2-DAEFRHDSGYEVHHQELVFFAEDVG (N-terminal Cys-[AEEAc]2 spacer, Oregon Green label) [SBD-OG, SBD with Cys-[AEEAc]2 spacer, thiol-labelled with Oregon Green]”: the “diffusion time τD on average” value was 35 ms.
In the case of `CCCCCCCCCCCCCCCCCCN1/C(=C/C=C/C2=[N+](CCCCCCCCCCCCCCCCCC)c3ccccc3C2(C)C)C(C)(C)c2ccccc21.[O-][Cl+3]([O-])([O-])[O-]` [DiI-C18], the “diffusion time τD on average” value was 10 ms. Besides, the “diffusion time τD under cholesterol depletion” value (4 mM MbCD for 30 minutes) worked out at 10.7 ± 0.58 ms.
